The list does not hold the whole screen: it is rich in T/C values a quarter to a half above the control, in often repeated tests (any T/C) and in doses without a T/C. Further doses and runs are listed elsewhere. T/C: endpoint of the treated group in % of that of the vehicle group. Some doses have a count of surviving animals in place of a T/C: the source files T/C as zero there, which appears to mark a toxic dose or a test without result, not a measured value. Some survivor counts are full or nearly so, which does not show that the dose was tolerated: survival well below the control is almost never listed, so the zero probably covers shortened survival too. Survivors were counted at the toxicity check, usually on the fifth day, unless a day is given; later deaths do not show. Schedules are NCI's codes, read here as Q, the interval in days (D) or hours (H), X, the number of doses. Where survival is the endpoint, the PubChem record calls one and a half times the control and up active, and a quarter to a half above the control has no call in these data; cut-offs in other NCI protocols can differ. Signs of the kind (2×) say how often a value occurs here. Some doses were run more than once; their values stand side by side, smallest first. Some T/C values are followed by the survivors on the day toxicity was checked, most often the fifth; where none is given, no animal had died by that day.
Test system: L1210 leukemia ip in BDF1 mice, survival T/C
Assay: NCI In Vivo Anticancer Drug Screen. Data for tumor model L1210 Leukemia (intraperitoneal) in B6D2F1 (BDF1) mice
Settings: T/C endpoint: mean survival time, higher T/C = longer survival
[1] = dose: 25.0 mg/kg/injection, schedule: Q01DX009 (ip), vehicle: Klucel (hydroxypropylcellulose) (HPC)
[2] = dose: 100.0 mg/kg/injection, schedule: Q01DX009 (ip), vehicle: Klucel (hydroxypropylcellulose) (HPC)
[3] = dose: 400.0 mg/kg/injection, schedule: Q01DX009 (ip), vehicle: saline with Tween-80
[4] = dose: 100.0 mg/kg/injection, schedule: Q01DX001 (ip), vehicle: other
[5] = dose: 200.0 mg/kg/injection, schedule: Q01DX001 (ip), vehicle: other
[6] = dose: 400.0 mg/kg/injection, schedule: Q01DX001 (ip), vehicle: other

In the case of Cc1ccc(Cl)cc1NC(=O)Nc1ccccc1, the survivor count (dose: 6.0 mg/kg/injection, schedule: Q01DX009 (ip), vehicle: Klucel (hydroxypropylcellulose) (HPC)) is reported as 6 of 6, the survivor count (dose: 12.0 mg/kg/injection, schedule: Q01DX009 (ip), vehicle: Klucel (hydroxypropylcellulose) (HPC)) is reported as 6 of 6 and the survivor count (dose: 12.5 mg/kg/injection, schedule: Q01DX009 (ip), vehicle: Klucel (hydroxypropylcellulose) (HPC)) is reported as 6 of 6. For the same compound, the survivor count [1] was 6 of 6, the survivor count (dose: 50.0 mg/kg/injection, schedule: Q01DX009 (ip), vehicle: Klucel (hydroxypropylcellulose) (HPC)) was 6 of 6 and the survivor count [2] was 6 of 6. The survivor count (dose: 200.0 mg/kg/injection, schedule: Q01DX009 (ip), vehicle: Klucel (hydroxypropylcellulose) (HPC)) was 6 of 6 and the survivor count (dose: 400.0 mg/kg/injection, schedule: Q01DX009 (ip), vehicle: Klucel (hydroxypropylcellulose) (HPC)) was 6 of 6.
For COc1ccc(CC[n+]2ccc(C#N)c(C(C)=O)c2)cc1OC, the survivor count (dose: 300.0 mg/kg/injection, schedule: Q01DX001 (ip), vehicle: carboxymethylcellulose (CMC)) was 1 of 6.
In the case of CCCCCCCCCCCCN1CCCC(O)C1 (stereo not drawn), the survivor count (dose: 400.0 mg/kg/injection, schedule: Q04DX003 (ip), vehicle: saline with Tween-80) is reported as 0 of 6.
Oc1cc(-c2cc(O)c(O)c(O)c2)cc(O)c1O was tested, and the survivor count [3] was 0 of 6.
With O/N=c1/ccn(O)c2ccccc12 the T/C (dose: 0.25 mg/kg/injection, schedule: Q03HX024 (ip), vehicle: other) was 135 % of control, the T/C (dose: 0.5 mg/kg/injection, schedule: Q03HX016 (ip), vehicle: other) was 139 % of control and the T/C (dose: 0.5 mg/kg/injection, schedule: Q03HX024 (ip), vehicle: other) was 142 % of control. The T/C (dose: 0.78 mg/kg/injection, schedule: Q01DX009 (ip), vehicle: saline) was 127 and 133 % of control, the T/C (dose: 1.0 mg/kg/injection, schedule: Q01DX005 (ip), vehicle: other) was 136 % of control [7 of 8 alive] and the T/C (dose: 1.0 mg/kg/injection, schedule: Q01DX009 (ip), vehicle: other) was 132 % of control. For the same compound, the T/C (dose: 1.0 mg/kg/injection, schedule: Q03HX008 (ip), vehicle: other) was 139 % of control, the T/C (dose: 1.0 mg/kg/injection, schedule: Q03HX016 (ip), vehicle: other) was 149 % of control and the T/C (dose: 1.0 mg/kg/injection, schedule: Q03HX024 (ip), vehicle: other) was 139 % of control. The T/C (dose: 1.17 mg/kg/injection, schedule: Q01DX009 (ip), vehicle: saline) was 129 % of control, the T/C (dose: 1.56 mg/kg/injection, schedule: Q01DX009 (ip), vehicle: saline) was 130 % of control and the T/C (dose: 2.0 mg/kg/injection, schedule: Q01DX005 (ip), vehicle: other) was 143 % of control. For the same compound, the T/C (dose: 2.0 mg/kg/injection, schedule: Q01DX009 (ip), vehicle: other) was 149 % of control, the T/C (dose: 2.0 mg/kg/injection, schedule: Q03HX016 (ip), vehicle: other) was 142 % of control and the T/C (dose: 2.0 mg/kg/injection, schedule: Q03HX024 (ip), vehicle: other) was 139 % of control. The T/C (dose: 2.0 mg/kg/injection, schedule: Q04DX003 (ip), vehicle: other) was 137 % of control, the T/C (dose: 2.6 mg/kg/injection, schedule: Q01DX015 (ip), vehicle: saline) was 134 % of control and the T/C (dose: 3.12 mg/kg/injection, schedule: Q01DX009 (ip), vehicle: saline) was 132 % of control. For the same compound, the T/C (dose: 4.0 mg/kg/injection, schedule: Q01DX001 (ip), vehicle: other) was 144 % of control, the T/C (dose: 4.0 mg/kg/injection, schedule: Q01DX005 (ip), vehicle: other) was 127 % of control and the T/C (dose: 4.0 mg/kg/injection, schedule: Q01DX015 (ip), vehicle: saline) was 133 % of control (2×). For the same compound, the survivor count (dose: 4.0 mg/kg/injection, schedule: Q03HX008 (ip), vehicle: other) was 4 of 8, the survivor count (dose: 4.0 mg/kg/injection, schedule: Q03HX024 (ip), vehicle: other) was 5 of 6 and the T/C (dose: 4.0 mg/kg/injection, schedule: Q04DX003 (ip), vehicle: other) was 147 % of control. For the same compound, the T/C (dose: 4.0 mg/kg/injection, schedule: Q08DX002 (ip), vehicle: other) was 142 % of control, the T/C (dose: 5.0 mg/kg/injection, schedule: Q01DX001 (ip), vehicle: other) was 132 % of control and the survivor count (dose: 6.25 mg/kg/injection, schedule: Q01DX009 (ip), vehicle: saline) was 3 of 6. For the same compound, the survivor count (dose: 8.0 mg/kg/injection, schedule: Q01DX009 (ip), vehicle: other) was 8 of 8, the survivor count (dose: 8.0 mg/kg/injection, schedule: Q01DX015 (ip), vehicle: saline) was 5 of 6 and the survivor count (dose: 8.0 mg/kg/injection, schedule: Q03HX008 (ip), vehicle: other) was 4 of 8. The T/C (dose: 10.0 mg/kg/injection, schedule: Q01DX001 (ip), vehicle: other) was 135 and 137 % of control, the survivor count (dose: 12.5 mg/kg/injection, schedule: Q01DX009 (ip), vehicle: saline) was 1 of 6 and the T/C (dose: 15.0 mg/kg/injection, schedule: Q01DX001 (ip), vehicle: other) was 127 % of control. For the same compound, the survivor count (dose: 16.0 mg/kg/injection, schedule: Q01DX001 (ip), vehicle: other) was 2 of 8, the survivor count (dose: 16.0 mg/kg/injection, schedule: Q01DX005 (ip), vehicle: other) was 5 of 8 and the survivor count (dose: 16.0 mg/kg/injection, schedule: Q01DX015 (ip), vehicle: saline) was 5 of 6. For the same compound, the survivor count (dose: 16.0 mg/kg/injection, schedule: Q04DX003 (ip), vehicle: other) was 2 of 8, the survivor count (dose: 16.0 mg/kg/injection, schedule: Q08DX002 (ip), vehicle: other) was 8 of 8 and the T/C (dose: 20.0 mg/kg/injection, schedule: Q01DX001 (ip), vehicle: other) was 134 % of control. The survivor count (dose: 25.0 mg/kg/injection, schedule: Q01DX009 (ip), vehicle: saline) was 3 of 6, the survivor count (dose: 32.0 mg/kg/injection, schedule: Q01DX001 (ip), vehicle: other) was 2 of 8 and the survivor count (dose: 32.0 mg/kg/injection, schedule: Q04DX003 (ip), vehicle: other) was 6 of 8. For the same compound, the survivor count (dose: 32.0 mg/kg/injection, schedule: Q08DX002 (ip), vehicle: other) was 7 of 8, the survivor count (dose: 50.0 mg/kg/injection, schedule: Q04DX003 (ip), vehicle: saline) was 1 of 6 and the survivor count (dose: 64.0 mg/kg/injection, schedule: Q01DX001 (ip), vehicle: other) was 2 of 8. For the same compound, the T/C (dose: 64.0 mg/kg/injection, schedule: Q01DX001 (sc), vehicle: other) was 125 % of control, the survivor count [4] was 3 of 6 and the survivor count (dose: 100.0 mg/kg/injection, schedule: Q04DX003 (ip), vehicle: saline) was 1 of 6. The survivor count [5] was 0 of 6 and the survivor count [6] was 0 of 6.
CN1CCCN(C(=S)S)CC1 was tested, and the survivor count (dose: 300.0 mg/kg/injection, schedule: Q01DX001 (ip), vehicle: saline) was 1 of 6.
Cc1nc(N)[nH]c(=O)c1CCCNC(=O)c1ccc(C(=O)CBr)cc1 was tested, and the survivor count (dose: 100.0 mg/kg/injection, schedule: Q01DX001 (ip), vehicle: Klucel (hydroxypropylcellulose) (HPC)) was 6 of 6.
For Cc1cnc2c(Nc3ccc(Cl)cc3)cc(N)nc2n1, the survivor count [1] was 6 of 6, the survivor count [4] was 2 of 6 and the survivor count [2] was 0 of 6. The survivor count (dose: 100.0 mg/kg/injection, schedule: Q04DX003 (ip), vehicle: Klucel (hydroxypropylcellulose) (HPC)) was 2 of 6, the survivor count [5] was 0 of 6 and the survivor count [6] was 1 of 6.
C#CCOC(=O)c1ccc(C(=O)OCC#C)cc1 was tested, and the survivor count (dose: 400.0 mg/kg/injection, schedule: Q01DX009 (ip), vehicle: saline sonified) was 1 of 6.
With Cc1nc2c(nc1C)C(=O)C(N1CC1)=CC2=O the survivor count (dose: 200.0 mg/kg/injection, schedule: Q01DX001 (ip), vehicle: Klucel (hydroxypropylcellulose) (HPC)) was 0 of 6 and the survivor count (dose: 400.0 mg/kg/injection, schedule: Q01DX001 (ip), vehicle: Klucel (hydroxypropylcellulose) (HPC)) was 0 of 6.
In the case of O=C(Nc1ccc(C(=O)O)cc1)Nc1cccc(C(F)(F)F)c1, the survivor count [3] is reported as 0 of 6.

— PubChem BioAssay AID248 (DTP/NCI, 2004)
